The list shows a part of the results. These are further read-outs of the screen, such as a control signal, another cell line or another target. No call is given for them. Most of these compounds were active or inconclusive in the main read-out, so they are no random draw. Words in brackets tell the shape of the fitted curve; partial curves, single points and poor fits give uncertain potencies.
Assay: qHTS Assay for Modulators of Lamin A Splicing
Conditions: HeLa LMNA splicing GFP/RFP minigene ratio, 48 h
How it was run: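 Read-out is the ratio of GFP to DsRed2 object intensity, acquired by 488 nm laser-scanning cytometry on HeLa lamin A-EGFP minigene reporter cells. Compound incubation 48 hrs at 37 °C in Opti-MEM with 2% FBS; DMSO 0.5% final.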

[1] = measured here: RFP viability control channel
[2] = measured here: GFP splicing reporter channel

Row | SMILES | AC50 [1] | AC50 [2]
1 | COc1ccc(NC(=O)c2ccc(Cc3ccc(C)cc3)o2)cc1 | 15.8 µM [rising, partial curve] | –
2 | O=C(NCc1ccccc1Cl)c1ccc2c(c1)NC(=O)C(CS(=O)(=O)Cc1ccc(Cl)cc1)N2 (stereo not drawn) | 1.58 µM [falling, partial curve] | –
3 | Cc1cccc(C)c1NC(=O)CCCSc1nnc(-c2ccc(Cl)cc2)n1-c1ccccc1 | 5.01 µM [rising, full curve, poor fit] | –
4 | O=c1cc(-c2ccccc2)nc(N2CCN(Cc3ccccc3)CC2)[nH]1 | 22.4 µM [rising, single point] | –
5 | O=C(NNC(=S)Nc1cccc(Cl)c1)c1ccccc1OC(F)F | 12.6 µM [rising, partial curve] | –
6 | CCOC(=O)C1=C(SCC)c2cc3c(n2C1=O)CCCC3 | 35.5 µM [rising, single point] | –
7 | CCCCN(C)C(=O)CSc1nc(NCc2ccc(OC)cc2)c2ccccc2n1 | 35.5 µM [rising, single point] | 35.5 µM [rising, single point]
8 | CCOC(=O)c1c(C)c(C(=O)Nc2ccc3c(c2)OCCO3)c(C)n1CC | 35.5 µM [rising, single point] | –
9 | Cc1nc(-c2ccccc2)nc(Cl)c1Cl | 0.0355 µM [falling, full curve] | –
10 | CCCCNC(=S)N/N=C/c1cc(C)ccc1C | 10 µM [falling, partial curve, poor fit] | 15.8 µM [falling, partial curve, poor fit]
11 | CCN(CCO)CCCC(C)Nc1ccnc2cc(Cl)ccc12 (stereo not drawn) | 35.5 µM [falling, single point] | 35.5 µM [falling, single point]
12 | CCOC(=O)c1ccc(NC(=O)Cn2cccc2)cc1 | – | 2 µM [rising, single point]
13 | Cc1nonc1CN(C)C(=O)c1ccc(OC2CCN(Cc3ccccn3)CC2)cc1 | 0.0501 µM [falling, single point] | –
14 | COc1cc(OC)cc(C(=O)Nc2nc3ccc(S(C)(=O)=O)cc3s2)c1 | – | 35.5 µM [falling, single point]
15 | Clc1ccccc1COc1ccccc1-c1nnco1 | 15.8 µM [rising, single point] | –
16 | CC1CN(C(=O)N2CCC(C(=O)NCc3ccccc3F)CC2)c2cc(Cl)ccc2O1 (stereo not drawn) | 1 µM [rising, full curve] | 0.562 µM [rising, full curve]
17 | COc1ccc(/C=N/OCC(=O)N2CCCC2)c(OC)c1 | – | 0.0562 µM [falling, full curve, poor fit]
18 | CCCOc1ccc(C(=O)NNC(=S)NC(=O)c2cc(-c3ccccc3)nc3ccccc23)cc1 | – | 7.08 µM [rising, full curve, poor fit]
19 | CC(=O)Nc1ccc(/C(C)=N/Nc2nc(Nc3cccc4ccccc34)nc(N3CCOCC3)n2)cc1 | 10 µM [rising, partial curve] | –

Row | SMILES | AC50 [1] | AC50 [2]
20 | CC(C)CCN1CCN(Cc2ccsc2)CC1CCO (stereo not drawn) | 0.0355 µM [rising, full curve] | 0.891 µM [rising, full curve]
21 | Oc1ccccc1-c1nc(NCC2CCCO2)c2ccccc2n1 (stereo not drawn) | 17.8 µM [rising, single point] | –
22 | Cc1c(Cl)cccc1NC(=O)COC(=O)c1c2c(nc3ccccc13)CCN(Cc1ccccc1)C2 | 10 µM [rising, partial curve] | –
23 | O=C(O)c1cccnc1Cl | 0.112 µM [falling, full curve, poor fit] | –
24 | Nc1nc(CSC(=S)N2CCN(c3ccccc3)CC2)nc(Nc2ccccc2)n1 | 31.6 µM [rising, single point] | 14.1 µM [rising, single point]
25 | CCOC(=O)C1=C(C)NC(C)=C(C(=O)OCC)C1C1=COCCO1 | 0.282 µM [rising, full curve, poor fit] | –
26 | Cc1cc(S(=O)(=O)NC(C)C)ccc1OCC(=O)NCc1ccccc1 | – | 3.55 µM [falling, partial curve]
27 | Cc1cc2c(OCC(O)CN3CCCC3)cccc2[nH]1 (stereo not drawn) | – | 0.00316 µM [rising, full curve]
28 | CCc1ccccc1S(=O)(=O)Cc1ccc(C(=O)N2CCN(c3ccccc3OC)CC2)o1 | 11.2 µM [rising, partial curve] | –
29 | CC(C)NC(=O)N(O)C1N(Cc2ccc3c(c2)OCO3)C(=S)SC1(C)C (stereo not drawn) | 1.26 µM [falling, single point] | 35.5 µM [rising, single point]
30 | Cc1onc(-c2c(F)cccc2Cl)c1C(=O)Nc1cccc2nsnc12 | 8.91 µM [rising, partial curve] | 2.51 µM [rising, full curve, poor fit]
31 | C=CCN(CC=C)S(=O)(=O)c1ccc(C(=O)Nc2nc3c(s2)CCc2ccccc2-3)cc1 | 11.2 µM [rising, partial curve, poor fit] | 12.6 µM [rising, partial curve, poor fit]
32 | O=C(c1ccc(COc2c(F)c(F)cc(F)c2F)o1)N1CCN(c2ccccc2)CC1 | 11.2 µM [rising, partial curve, poor fit] | –
33 | Cn1nnnc1SCCCNCc1cc(Br)ccc1OCc1ccccc1F | – | 8.91 µM [falling, partial curve, poor fit]
34 | CCOC(=O)c1cc(-c2ccccc2)n(CC(=O)Nc2ccccc2OCC)c1C | 0.158 µM [falling, full curve, poor fit] | 0.158 µM [falling, full curve, poor fit]
35 | CCCCCCC(C)NC(=S)Nc1cc(S(=O)(=O)N(C)C)ccc1C (stereo not drawn) | 20 µM [rising, single point] | 12.6 µM [rising, partial curve]
36 | Cc1ccccc1-c1noc(-c2ccccc2C(=O)N2CCCC2)n1 | 20 µM [rising, partial curve, poor fit] | 0.00447 µM [rising, full curve, poor fit]
37 | CCCCNc1nc(N)nc(-c2cc(Cl)ccc2O)n1 | 15.8 µM [falling, single point] | 14.1 µM [falling, single point]
38 | Cc1cc(C)c(C(=O)Nc2ccc(Br)c(C(F)(F)F)c2)c(C)c1 | 0.00708 µM [rising, full curve, poor fit] | 17.8 µM [rising, partial curve]

Some of these compounds in order of length of the SMILES, falling.
Row | SMILES | AC50 [1] | AC50 [2]
22 | Cc1c(Cl)cccc1NC(=O)COC(=O)c1c2c(nc3ccccc13)CCN(Cc1ccccc1)C2 | 10 µM [rising, partial curve] | –
8 | CCOC(=O)c1c(C)c(C(=O)Nc2ccc3c(c2)OCCO3)c(C)n1CC | 35.5 µM [rising, single point] | –
36 | Cc1ccccc1-c1noc(-c2ccccc2C(=O)N2CCCC2)n1 | 20 µM [rising, partial curve, poor fit] | 0.00447 µM [rising, full curve, poor fit]

(listing goes on)

Row | SMILES | AC50 [1] | AC50 [2]
39 | Cc1ccc(NC(=O)Cn2cc(S(=O)(=O)c3ccc(C)cc3)c(=O)c3cc(F)ccc32)cc1 | 5.62 µM [rising, single point] | 3.98 µM [rising, single point]
40 | COC(=O)c1nn(-c2ccc(C)cc2)c2nnc(Cc3ccccc3)c(=O)n12 | 3.98 µM [falling, partial curve] | 5.01 µM [falling, partial curve]
41 | COc1ccc(-n2c(CNC(=O)c3cccs3)n[nH]c2=S)cc1 | – | 2.51 µM [falling, full curve]
42 | CCOC(=O)c1ccccc1NC(=O)C=C(C)C | 0.00355 µM [rising, full curve, poor fit] | –
43 | COc1cccc(NC(=S)NNC(=O)CCn2cc([N+](=O)[O-])cn2)c1 | 0.00316 µM [falling, full curve, poor fit] | –
44 | Cc1cccc(/C=N\NC(=O)c2ccc(Cl)cc2)c1O | 2.24 µM [falling, partial curve, poor fit] | –
45 | Fc1cccc(NC(=S)NCCc2ccccc2)c1 | 35.5 µM [rising, single point] | –
46 | Cc1cccc(C)c1NC(=O)CCCn1c(=O)c2cccn2c2ccccc21 | – | 12.6 µM [falling, partial curve, poor fit]
47 | O=Cc1sc(Nc2ccccc2)nc1Cl | – | 1.78 µM [falling, full curve]
48 | NC(=O)C1CCN(c2ncnc3c(-c4ccccc4)nsc23)CC1 | 22.4 µM [falling, single point] | 15.8 µM [falling, single point]
49 | O=C(COc1ccc(Br)cc1)N1CCN(S(=O)(=O)/C=C/c2ccccc2)CC1 | 35.5 µM [rising, single point] | 31.6 µM [rising, single point]
50 | Cc1ccc(Cl)cc1-n1ncc2c(Nc3ccc4c(c3)OCCO4)ncnc21 | 3.98 µM [falling, single point] | –
51 | Cc1ccnc(Nc2nc3ccccc3o2)n1 | 31.6 µM [rising, partial curve] | –
52 | COc1cccc(CN2CCN(Cc3ccc(C#CC(C)(C)O)s3)CC2CCO)c1 (stereo not drawn) | 12.6 µM [falling, partial curve] | 25.1 µM [falling, single point]
53 | Cc1nn(-c2nc3ccccc3s2)c(C)c1Oc1ccccc1O | 1.58 µM [rising, partial curve, poor fit] | 35.5 µM [falling, single point]
54 | Cc1cc(C)cc(CC(Cc2nc3ccccc3[nH]2)c2nc3ccccc3[nH]2)c1 (stereo not drawn) | 22.4 µM [rising, single point] | –
55 | O=C(Nc1ncc(Cc2ccccc2Cl)s1)c1ccc(-c2cccc([N+](=O)[O-])c2)o1 | 3.98 µM [rising, full curve, poor fit] | –
56 | NC(N)=NCCC[C@H](NC(=O)OCc1ccccc1)C(=O)O | 5.01 µM [falling, partial curve] | –
57 | CC(C)c1ccc(NC(=O)C(c2ccccc2)N2CCC3(CC2)OCCO3)cc1 (stereo not drawn) | 11.2 µM [rising, single point] | 11.2 µM [rising, single point]

Source: PubChem BioAssay AID1487 (National Center for Advancing Translational Sciences (NCATS), 2009)
